Reference: the supplement of paper PMC3682954
“And” between values parts separate entries of the source, which are not always exact repeats. Equal entries are not always repeated. Structures can show the parent of a compound that is named as a salt. ± gives the standard deviation of the averaged measurements. The list shows a part of the results. Single values are uncertain, as repeats are few or missing.

Test system: RAW 264.7
Test: cell viability (MTT) relative to vehicle control; higher = more viable cells
Details: stimulus: HMGB1 5 ug/ml, 18 h
[1] = compound concentration: 1 ug/ml

Row | Compound | cell viability (compound concentration: 3 uM) | cell viability [1] [%]
1 | Cn1c(=O)[nH]c2ncn(C)c2c1=O [1,7-Dimethylxanthine] | 103% | 
2 | C[C@@H]1CC[C@H]2[C@](C)(CO)[C@@H](O)CC[C@]2(C)[C@@]12CC[C@@](CO)(CCO)O2 [Lagochiline] |  | 87.6
3 | NC1CCN(c2cccc(Cl)n2)CC1 | 96.1% and 120% | 
4 | Cc1ccc(S(=O)(=O)N[C@@H](Cc2ccccc2)C(=O)CCl)cc1 [N-p-Tosyl-L-phenylalanine chloromethyl ketone] | 105% | 
5 | CCCN1CCCC[C@H]1C(=O)Nc1c(C)cccc1C | 95.4% | 
6 | COc1cc(C(=O)NCc2ccc(OCCN(C)C)cc2)cc(OC)c1OC | 114% | 
7 | COc1cc(C(=O)NCc2ccc(OCCN(C)C)cc2)cc(OC)c1OC [Trimethobenzamide hydrochloride] | 97.4% | 
8 | Cc1c(C(=O)NN2CCCCC2)nn(-c2ccc(Cl)cc2Cl)c1-c1ccc(I)cc1 | 101% | 
9 | CCc1nc(N)nc(N)c1-c1ccc(Cl)cc1 [Pyrimethamine] | 81.9% | 
10 | CCc1nc(N)nc(N)c1-c1ccc(Cl)cc1 | 93.3% | 
11 | CC(=O)[C@@]1(O)CC[C@H]2[C@@H]3C[C@H](C)C4=CC(=O)C=C[C@]4(C)[C@@]3(F)[C@@H](O)C[C@@]21C [Fluorometholone] | 104% | 
12 | CC(=O)[C@@]1(O)CC[C@H]2[C@@H]3C[C@H](C)C4=CC(=O)C=C[C@]4(C)[C@@]3(F)[C@@H](O)C[C@@]21C | 114% | 
13 | CC(C)NCC(O)COc1ccc(CCOCC2CC2)cc1 (configuration not stated) | 98.1% | 
14 | CC(C)NCC(O)COc1ccc(CCOCC2CC2)cc1 (configuration not stated) [Betaxolol hydrochloride] | 93 ± 2.8% | 
15 | CC(C)NCC(O)COc1ccc(CCOCC2CC2)cc1 (configuration not stated) [Betaxolol] | 109% | 
16 | CN1CC(=O)N2[C@H](c3ccc4c(c3)OCO4)c3[nH]c4ccccc4c3C[C@@H]2C1=O | 109 ± 2.5% | 
17 | C1CCC(C(CC2CCCCN2)C2CCCCC2)CC1 (configuration not stated) [Perhexiline maleate] | 98.5% | 
18 | C1CCC(C(CC2CCCCN2)C2CCCCC2)CC1 (configuration not stated) | 96.7% | 
19 | C[C@H]1c2cccc(O)c2C(=O)C2=C(O)[C@]3(O)C(=O)C(C(N)=O)=C(O)[C@@H](N(C)C)[C@@H]3[C@@H](O)[C@@H]21 [Doxycycline hydrochloride] | 103 ± 5.4% | 
20 | C[C@H]1c2cccc(O)c2C(=O)C2=C(O)[C@]3(O)C(=O)C(C(N)=O)=C(O)[C@@H](N(C)C)[C@@H]3[C@@H](O)[C@@H]21 | 101% | 
21 | C[C@H]1c2cccc(O)c2C(=O)C2=C(O)[C@]3(O)C(=O)C(C(N)=O)=C(O)[C@@H](N(C)C)[C@@H]3[C@@H](O)[C@@H]21 [Doxycycline] | 103% | 
22 | O=c1ccn2c(n1)O[C@H]1[C@H](O)[C@@H](CO)O[C@H]12 [O2,2'-Cyclouridine] |  | 101
23 | COc1cc2c(C)cc(=O)oc2cc1Cl |  | 94.6
24 | C[C@](N)(Cc1ccc(O)c(O)c1)C(=O)O [Methyldopa (L,-)] | 102% | 

From no. 1 as far as 4, as listed above:
Row | Compound | cell viability (compound concentration: 3 uM) | cell viability [1] [%]
1 | Cn1c(=O)[nH]c2ncn(C)c2c1=O [1,7-Dimethylxanthine] | 103% | 
2 | C[C@@H]1CC[C@H]2[C@](C)(CO)[C@@H](O)CC[C@]2(C)[C@@]12CC[C@@](CO)(CCO)O2 [Lagochiline] |  | 87.6
3 | NC1CCN(c2cccc(Cl)n2)CC1 | 96.1% and 120% | 
4 | Cc1ccc(S(=O)(=O)N[C@@H](Cc2ccccc2)C(=O)CCl)cc1 [N-p-Tosyl-L-phenylalanine chloromethyl ketone] | 105% | 

(cont.)

Row | Compound | cell viability (compound concentration: 3 uM) | cell viability [1] [%]
25 | C[C@](N)(Cc1ccc(O)c(O)c1)C(=O)O | 109% | 
26 | C[C@](N)(Cc1ccc(O)c(O)c1)C(=O)O [L-alpha-Methyl DOPA] | 114% | 
27 | C[C@](N)(Cc1ccc(O)c(O)c1)C(=O)O [Methyldopa] | 96.6% | 
28 | C/C(=C\CNc1ncnc2nc[nH]c12)CO [trans-Zeatin] |  | 83.9
29 | c1cnc(N2CCN(Cc3ccc4c(c3)OCO4)CC2)nc1 [Piribedil maleate] | 110% | 
30 | c1cnc(N2CCN(Cc3ccc4c(c3)OCO4)CC2)nc1 | 108% | 
31 | c1cnc(N2CCN(Cc3ccc4c(c3)OCO4)CC2)nc1 [Piribedil hydrochloride] | 103% | 
32 | c1cnc(N2CCN(Cc3ccc4c(c3)OCO4)CC2)nc1 [Piribedil] | 102 ± 2.8% | 
33 | CCCC1C(=O)N2C(N(C)C)=Nc3ccc(C)cc3N2C1=O (configuration not stated) [Azapropazone] | 79.8% | 
34 | O=C(O)CNC(=O)C(CS)Cc1ccccc1 (racemic) [DL-Thiorphan] | 108% | 
35 | Clc1ccc(C(Cn2ccnc2)OCc2ccsc2Cl)c(Cl)c1 (configuration not stated) | 99.5% | 
36 | Clc1ccc(C(Cn2ccnc2)OCc2ccsc2Cl)c(Cl)c1 (configuration not stated) [Tioconazole] | 94.1 ± 10% | 
37 | CCOC(=O)O[C@]1(C(=O)OCCl)CC[C@H]2[C@@H]3CCC4=CC(=O)C=C[C@]4(C)[C@H]3[C@@H](O)C[C@@]21C | 104% | 
38 | Fc1ccc(CN(C2=NCCN2)c2c(Cl)cccc2Cl)cc1 [IMID-4F hydrochloride] | 105% | 
39 | CCOC(=O)COc1ccc2c(=O)cc(-c3ccccc3)oc2c1 | 112% | 
40 | Oc1cc2c(c(Cl)c1O)CCNCC2c1ccccc1 (racemic) [(±)-6-Chloro-PB hydrobromide] | 115% | 
41 | Cc1nn(-c2ccccc2)c(C)c1C=NN1CCN(Cc2ccccc2)CC1 | 99.9% | 
42 | Cc1ccc(NC(=O)c2ccc(CN3CCN(C)CC3)cc2)cc1Nc1nccc(-c2cccnc2)n1 | 104% | 
43 | Cc1ccc(NC(=O)c2ccc(CN3CCN(C)CC3)cc2)cc1Nc1nccc(-c2cccnc2)n1 [Imatinib] | 109 ± 13% | 
44 | O=C(O)C(=O)O.[NH-][C@@H]1CCCC[C@H]1[NH-].[Pt+2] [Oxaliplatin] | 93.8% | 
45 | O=C(C1CCCCC1)N1CC(=O)N2CCc3ccccc3C2C1 (configuration not stated) | 102% | 
46 | O=C(C1CCCCC1)N1CC(=O)N2CCc3ccccc3C2C1 (configuration not stated) [Praziquantel] | 98.6 ± 5% | 
47 | CO[C@H]1/C=C/O[C@@]2(C)Oc3c(C)c(O)c4c(O)c(cc(O)c4c3C2=O)NC(=O)/C(C)=C\C=C\[C@H](C)[C@H](O)[C@@H](C)[C@@H](O)[C@@H](C)[C@H](OC(C)=O)[C@@H]1C [Rifamycin SV sodium salt] |  | 105
48 | CO[C@H]1/C=C/O[C@@]2(C)Oc3c(C)c(O)c4c(O)c(cc(O)c4c3C2=O)NC(=O)/C(C)=C\C=C\[C@H](C)[C@H](O)[C@@H](C)[C@@H](O)[C@@H](C)[C@H](OC(C)=O)[C@@H]1C | 95.3% | 

Row | Compound | cell viability (compound concentration: 3 uM) | cell viability [1] [%]
49 | C(=C\c1ccccc1)/CN1CCN(C(c2ccccc2)c2ccccc2)CC1 [Cinnarizine] | 98.7 ± 6% | 
50 | COc1ccc(-c2cc(=O)c3c(O)c(OC)c(O[C@@H]4O[C@H](CO[C@@H]5O[C@@H](C)[C@H](O)[C@@H](O)[C@H]5O)[C@@H](O)[C@H](O)[C@H]4O)cc3o2)cc1 [Pectolinarin] |  | 109
51 | CCOC(=O)C1(CCCCCCOc2ccc(Cl)cc2)CO1 (configuration not stated) | 100% | 
52 | COc1ccc(-c2cc(=O)c3ccc4ccccc4c3o2)cc1OC [3',4'-Dimethoxy-a-naphthoflavone] |  | 80.8
53 | COc1ccc2c(c1)c(CC(=O)O)c(C)n2C(=O)c1ccc(Cl)cc1 [Indomethacin] | 96.8 ± 5.8% | 
54 | COc1ccc2c(c1)c(CC(=O)O)c(C)n2C(=O)c1ccc(Cl)cc1 | 97% | 
55 | Nc1nc2ccc(OC(F)(F)F)cc2s1 [Riluzole hydrochloride] | 105% | 
56 | Nc1nc2ccc(OC(F)(F)F)cc2s1 [Riluzole] | 104 ± 15% | 
57 | O=C(O)c1cc(=O)cc(C(=O)O)[nH]1 [Chelidamic acid] | 95.7% | 
58 | OC[C@H]1O[C@H](O[C@]2(CCl)O[C@H](CCl)[C@@H](O)[C@@H]2O)[C@H](O)[C@@H](O)[C@H]1Cl | 97% | 
59 | CC(C)C[C@H](NC(=O)[C@H](O)[C@H](N)Cc1ccccc1)C(=O)O [Epibestatin hydrochloride] | 96.1% | 
60 | C=C1c2c(Cl)ccc(O)c2C(=O)C2=C(O)[C@]3(O)C(=O)C(C(N)=O)=C(O)[C@@H](N(C)C)[C@@H]3[C@@H](O)[C@H]12.O=C(O)c1cc(S(=O)(=O)O)ccc1O | 106% | 
61 | C=C1c2c(Cl)ccc(O)c2C(=O)C2=C(O)[C@]3(O)C(=O)C(C(N)=O)=C(O)[C@@H](N(C)C)[C@@H]3[C@@H](O)[C@H]12.O=C(O)c1cc(S(=O)(=O)O)ccc1O [Meclocycline sulfosalicylate] | 106% | 
62 | CC(C)(C)NCC(O)COc1cccc2c1CCC(=O)N2 (configuration not stated) [Carteolol hydrochloride] | 108% | 
63 | CCOC(=O)O[C@]1(C(=O)COC(=O)CC)CC[C@H]2[C@@H]3CCC4=CC(=O)C=C[C@]4(C)[C@H]3[C@@H](O)C[C@@]21C [Prednicarbate] | 96.5% | 
64 | CCCCCCCCCCCCCCCC(=O)OC(CC(=O)O)C[N+](C)(C)C (racemic) [Palmitoyl-DL-Carnitine chloride] | 110% | 
65 | COc1ccc2c(c1OC)C(=O)O[C@@H]2[C@H]1c2c(cc3c(c2OC)OCO3)CCN1C [Noscapine hydrochloride hydrate  (Narcotine)] |  | 96
66 | COc1ccc2c(c1OC)C(=O)O[C@@H]2[C@H]1c2c(cc3c(c2OC)OCO3)CCN1C [Noscapine hydrchloride] | 104% | 
67 | COc1ccc2c(c1OC)C(=O)O[C@@H]2[C@H]1c2c(cc3c(c2OC)OCO3)CCN1C | 105% | 
68 | CC(=O)NCCCS(=O)(=O)O | 114% | 
69 | O=C(CCc1ccc(O)cc1)c1c(O)cc(O)cc1O [Phloretin] | 107% | 94.8 ± 3.4
70 | CC[C@H](C)[C@H](N)C1=N[C@H](C(=O)N[C@@H](CC(C)C)C(=O)N[C@H](CCC(=O)O)C(=O)N[C@H](C(=O)N[C@H]2CCCCNC(=O)[C@H](CC(N)=O)NC(=O)[C@@H](CC(=O)O)NC(=O)[C@H](Cc3cnc[nH]3)NC(=O)[C@@H](Cc3ccccc3)NC(=O)[C@H]([C@@H](C)CC)NC(=O)[C@@H](CCCN)NC2=O)[C@@H](C)CC)CS1 [Bacitracin] | 113% | 
71 | CC[C@H](C)[C@H](N)C1=N[C@H](C(=O)N[C@@H](CC(C)C)C(=O)N[C@H](CCC(=O)O)C(=O)N[C@H](C(=O)N[C@H]2CCCCNC(=O)[C@H](CC(N)=O)NC(=O)[C@@H](CC(=O)O)NC(=O)[C@H](Cc3cnc[nH]3)NC(=O)[C@@H](Cc3ccccc3)NC(=O)[C@H]([C@@H](C)CC)NC(=O)[C@@H](CCCN)NC2=O)[C@@H](C)CC)CS1 | 106% | 
